No constants are given. Whether binding was seen depends on the method and setting. A result given as binding can be weak or reduced; the word gives no strength. Sequences can lack the tags named with a protein. For some assays here: Binding seen in cells or lysates may run through a third protein.
B1: PRE1-AD (PRE1 in pGADT7) (protein, UniProt Q9FLE9 1-92)
chain: MSNRRSRQSSSAPRISDNQMIDLVSKLRQILPEIGQRRRSDKASASKVLQETCNYIRNLNREVDNLSERLSQLLESVDEDSPEAAVIRSLLM
B2: CIB5-AD (CIB5 in pGADT7) (protein, UniProt Q9C670 1-390)
chain: MSDKDEFAAKKKDLVNTPVDLYPPENPMLGPSPMMDSFRETLWHDGGFNVHTDADTSFRGNNNIDIPLEMGWNMAQFPADSGFIERAAKFSFFGCGEMMMNQQQSSLGVPDSTGLFLQDTQIPSGSKLDNGPLTDASKLVKERSINNVSEDSQSSGGNGHDDAKCGQTSSKGFSSKKRKRIGKDCEEEEDKKQKDEQSPTSNANKTNSEKQPSDSLKDGYIHMRARRGQATNSHSLAERVRREKISERMKFLQDLVPGCDKVTGKAVMLDEIINYVQSLQCQIEFLSMKLSAVNPVLDFNLESLLAKDALQSSAPTFPHNMSMLYPPVSYLSQTGFMQPNISSMSLLSGGLKRQETHGYESDHHNLVHMNHETGTAPDHEDTTADMKVEP
B3: CIL1 (prey in pGADT7) (protein, UniProt Q9CAA9 1-486)
chain: MDLSAKDEFSAEKRNPDNYDSVNNPSGDWRVDSYPSENLISAGPASCSPSQMMDSFGQTLWYDPTSVQAVGYAGFNGGNASSSSFRGSIDRSLEMGWNLPNLLPPKGNGLFLPNASSFLPPSMAQFPADSGFIERAARFSLFSGGNFSDMVNQPLGNSEAIGLFLQGGGTMQGQCQSNELNVGEPHNDVSVAVKESTVRSSEQAKPNVPGSGNVSEDTQSSGGNGQKGRETSSNTKKRKRNGQKNSEAAQSHRSQQSEEEPDNNGDEKRNDEQSPNSPGKKSNSGKQQGKQSSDPPKDGYIHVRARRGQATNSHSLAERVRREKISERMKFLQDLVPGCNKVTGKAVMLDEIINYVQSLQRQVEFLSMKLATVNPQMDFNLEGLLAKDALQLRAGSSSTTPFPPNMSMAYPPLPHGFMQQTLSSIGRTITSPLSPMNGGFKRQETNGWEGDLQNVIHINYGAGDVTPDPQAAATASLPAANMKVEP
B4: ICE1 (prey in pGADT7) (protein, UniProt Q9LSE2 1-494)
chain: MGLDGNNGGGVWLNGGGGEREENEEGSWGRNQEDGSSQFKPMLEGDWFSSNQPHPQDLQMLQNQPDFRYFGGFPFNPNDNLLLQHSIDSSSSCSPSQAFSLDPSQQNQFLSTNNNKGCLLNVPSSANPFDNAFEFGSESGFLNQIHAPISMGFGSLTQLGNRDLSSVPDFLSARSLLAPESNNNNTMLCGGFTAPLELEGFGSPANGGFVGNRAKVLKPLEVLASSGAQPTLFQKRAAMRQSSGSKMGNSESSGMRRFSDDGDMDETGIEVSGLNYESDEINESGKAAESVQIGGGGKGKKKGMPAKNLMAERRRRKKLNDRLYMLRSVVPKISKMDRASILGDAIDYLKELLQRINDLHNELESTPPGSLPPTSSSFHPLTPTPQTLSCRVKEELCPSSLPSPKGQQARVEVRLREGRAVNIHMFCGRRPGLLLATMKALDNLGLDVQQAVISCFNGFALDVFRAEQCQEGQEILPDQIKAVLFDTAGYAGMI

Experiments:
[1] = molecular target: T1, CIB5-cYFP-3× Myc (A. thaliana) (UniProt Q9C670); test: split reporter; BiFC in A. thaliana protoplasts: nYFP (1-155)-3×Flag and cYFP (156-239)-3×Myc fusions co-transformed; GHD7-mCherry as nuclear marker; confocal microscopy
T1 sequence: B2 chain

[2] = molecular target: T2, PRE1-cYFP-3× Myc (A. thaliana) (UniProt Q9FLE9); test: as above
T2 sequence: B1 chain

[3] = molecular target: T1, CIB5-cYFP-3× Myc (A. thaliana); test: co-IP; BiFC plasmids co-transformed into A. thaliana protoplasts, 22 °C 12-16 h in the dark; total protein on anti-c-Myc affinity gel 4 h at 4 °C; washed with TTBS (17 mM Tris, 130 mM NaCl, pH 7.5, 1% Triton-X100); blots with anti-FLAG and anti-c-Myc
[4] = molecular target: T2, PRE1-cYFP-3× Myc (A. thaliana); test: as above
[5] = molecular target: HLH4-BD (HLH4 in pGBKT7) (A. thaliana); test: two-hybrid; HLH4 in pGBKT7 (bait) and preys in pGADT7, co-transfected into yeast strain Y2HGold; β-galactosidase assay on SD-trp-leu medium

Molecule	binding [5]	also measured
HLH4-nYFP-3× FLAG (A. thaliana)	–	binding [1]: binds; binding [2]: binds; binding [3]: binds; binding [4]: binds
B1	binds	–
B2	binds	–
B3	binds	–
B4	no binding	–

Source: article PMC8997993
